Experiment [1] deals with T1, GST-TRIP-Br1 fusion protein (full-length TRIP-Br1 fused with GST) (human) (UniProt Q9UHV2).
T1 sequence: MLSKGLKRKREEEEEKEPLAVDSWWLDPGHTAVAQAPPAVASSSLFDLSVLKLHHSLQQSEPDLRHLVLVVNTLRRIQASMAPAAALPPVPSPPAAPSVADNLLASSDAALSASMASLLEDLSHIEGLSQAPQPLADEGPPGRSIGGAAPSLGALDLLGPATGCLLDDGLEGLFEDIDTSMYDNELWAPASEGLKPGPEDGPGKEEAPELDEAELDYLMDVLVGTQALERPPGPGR
The experiment is described as follows: pull-down; GST or GST fusion proteins (5 μg) on glutathione-Sepharose beads, incubated overnight at 4°C with lysates of transfected HEK293T cells in Co-IP buffer; washed five times with Co-IP buffer plus 0.5% Triton X-100; western blot; only the target purified. Background: In western blotting, separated proteins are transferred to a membrane and probed.

Protein sequences, listed by entry. Tags and fused reporters are not part of them. Lines headed by an entry give the natural chain unless they say otherwise; changes in a name come on top.
UniProt Q08828: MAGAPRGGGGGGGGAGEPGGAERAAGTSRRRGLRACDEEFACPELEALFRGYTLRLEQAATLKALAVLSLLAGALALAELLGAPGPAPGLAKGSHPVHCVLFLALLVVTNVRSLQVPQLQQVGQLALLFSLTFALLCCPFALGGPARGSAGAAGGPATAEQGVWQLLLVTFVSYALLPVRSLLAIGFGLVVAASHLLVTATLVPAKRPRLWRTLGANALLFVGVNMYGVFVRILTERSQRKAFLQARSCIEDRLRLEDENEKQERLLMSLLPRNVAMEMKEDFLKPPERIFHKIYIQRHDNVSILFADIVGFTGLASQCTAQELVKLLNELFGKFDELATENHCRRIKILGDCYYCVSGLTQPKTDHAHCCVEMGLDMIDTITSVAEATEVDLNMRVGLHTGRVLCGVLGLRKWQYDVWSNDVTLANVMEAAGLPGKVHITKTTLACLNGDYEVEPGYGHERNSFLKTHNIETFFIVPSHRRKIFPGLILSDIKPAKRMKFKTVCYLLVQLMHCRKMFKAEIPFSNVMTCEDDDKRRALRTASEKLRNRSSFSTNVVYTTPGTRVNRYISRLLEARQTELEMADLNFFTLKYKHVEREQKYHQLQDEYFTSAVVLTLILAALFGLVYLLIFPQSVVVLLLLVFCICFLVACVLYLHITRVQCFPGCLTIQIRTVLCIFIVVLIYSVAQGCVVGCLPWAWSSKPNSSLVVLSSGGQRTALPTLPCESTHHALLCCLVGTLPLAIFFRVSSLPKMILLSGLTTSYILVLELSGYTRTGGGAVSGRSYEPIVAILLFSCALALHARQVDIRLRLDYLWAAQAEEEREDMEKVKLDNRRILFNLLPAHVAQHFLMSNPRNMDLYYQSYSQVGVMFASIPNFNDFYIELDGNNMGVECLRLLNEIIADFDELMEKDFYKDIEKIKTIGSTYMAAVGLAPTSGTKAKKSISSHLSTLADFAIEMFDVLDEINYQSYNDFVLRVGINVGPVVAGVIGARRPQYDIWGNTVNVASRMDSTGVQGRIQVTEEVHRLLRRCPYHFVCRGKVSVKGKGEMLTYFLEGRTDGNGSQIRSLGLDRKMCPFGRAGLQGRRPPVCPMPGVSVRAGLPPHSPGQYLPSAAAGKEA
UniProt P26769: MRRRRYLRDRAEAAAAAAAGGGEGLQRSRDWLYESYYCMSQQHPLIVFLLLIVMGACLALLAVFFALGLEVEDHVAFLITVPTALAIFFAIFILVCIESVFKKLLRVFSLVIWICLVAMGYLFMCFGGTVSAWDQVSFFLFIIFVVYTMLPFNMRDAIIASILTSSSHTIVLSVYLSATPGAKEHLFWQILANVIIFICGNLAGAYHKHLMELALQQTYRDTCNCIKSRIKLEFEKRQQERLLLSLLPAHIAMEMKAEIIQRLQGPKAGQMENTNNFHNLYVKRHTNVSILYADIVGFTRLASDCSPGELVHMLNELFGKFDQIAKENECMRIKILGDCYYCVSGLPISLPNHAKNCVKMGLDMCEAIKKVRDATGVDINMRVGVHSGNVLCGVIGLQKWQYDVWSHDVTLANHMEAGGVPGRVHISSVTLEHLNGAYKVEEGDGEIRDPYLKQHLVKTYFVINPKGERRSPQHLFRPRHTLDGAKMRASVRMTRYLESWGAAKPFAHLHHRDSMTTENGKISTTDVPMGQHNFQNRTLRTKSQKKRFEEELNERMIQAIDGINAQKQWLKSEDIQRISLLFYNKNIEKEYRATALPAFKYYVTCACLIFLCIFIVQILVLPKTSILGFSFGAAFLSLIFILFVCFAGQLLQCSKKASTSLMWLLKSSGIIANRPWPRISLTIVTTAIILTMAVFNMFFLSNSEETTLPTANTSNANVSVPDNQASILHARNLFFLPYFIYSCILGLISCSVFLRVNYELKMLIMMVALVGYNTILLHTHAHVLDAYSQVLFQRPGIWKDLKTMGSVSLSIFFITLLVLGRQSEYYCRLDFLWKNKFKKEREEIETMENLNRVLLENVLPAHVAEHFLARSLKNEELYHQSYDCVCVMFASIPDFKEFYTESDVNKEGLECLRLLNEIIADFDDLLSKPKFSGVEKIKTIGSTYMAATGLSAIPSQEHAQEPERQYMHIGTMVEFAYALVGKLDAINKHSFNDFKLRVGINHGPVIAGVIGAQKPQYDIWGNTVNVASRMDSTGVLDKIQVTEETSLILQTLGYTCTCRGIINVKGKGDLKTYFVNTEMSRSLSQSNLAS
UniProt P26770: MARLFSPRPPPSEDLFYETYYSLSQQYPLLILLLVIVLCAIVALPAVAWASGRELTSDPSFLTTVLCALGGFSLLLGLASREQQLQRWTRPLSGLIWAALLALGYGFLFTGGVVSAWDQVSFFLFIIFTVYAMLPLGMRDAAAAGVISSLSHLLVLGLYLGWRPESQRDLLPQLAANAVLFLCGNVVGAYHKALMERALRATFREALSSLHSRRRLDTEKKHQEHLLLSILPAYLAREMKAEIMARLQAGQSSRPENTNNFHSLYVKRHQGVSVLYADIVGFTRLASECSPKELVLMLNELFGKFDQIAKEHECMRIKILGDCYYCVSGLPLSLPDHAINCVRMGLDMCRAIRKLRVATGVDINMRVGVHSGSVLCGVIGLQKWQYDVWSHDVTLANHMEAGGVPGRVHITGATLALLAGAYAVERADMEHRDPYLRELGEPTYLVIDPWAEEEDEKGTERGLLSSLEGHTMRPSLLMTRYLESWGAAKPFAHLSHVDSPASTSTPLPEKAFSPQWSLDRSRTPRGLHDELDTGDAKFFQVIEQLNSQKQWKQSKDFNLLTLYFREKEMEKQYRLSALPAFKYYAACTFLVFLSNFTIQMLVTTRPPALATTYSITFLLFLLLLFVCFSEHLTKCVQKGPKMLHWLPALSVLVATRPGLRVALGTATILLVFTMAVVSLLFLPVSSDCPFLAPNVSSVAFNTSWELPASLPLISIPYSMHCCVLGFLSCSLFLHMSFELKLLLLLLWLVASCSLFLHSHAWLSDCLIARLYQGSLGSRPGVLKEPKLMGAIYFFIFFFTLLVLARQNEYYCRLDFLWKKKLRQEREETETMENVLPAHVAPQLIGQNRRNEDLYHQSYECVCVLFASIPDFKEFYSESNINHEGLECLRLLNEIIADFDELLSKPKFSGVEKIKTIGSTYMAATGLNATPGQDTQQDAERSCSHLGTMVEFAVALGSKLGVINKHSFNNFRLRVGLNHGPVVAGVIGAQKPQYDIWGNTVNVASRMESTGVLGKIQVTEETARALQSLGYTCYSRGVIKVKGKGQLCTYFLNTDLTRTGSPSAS
UniProt P40146: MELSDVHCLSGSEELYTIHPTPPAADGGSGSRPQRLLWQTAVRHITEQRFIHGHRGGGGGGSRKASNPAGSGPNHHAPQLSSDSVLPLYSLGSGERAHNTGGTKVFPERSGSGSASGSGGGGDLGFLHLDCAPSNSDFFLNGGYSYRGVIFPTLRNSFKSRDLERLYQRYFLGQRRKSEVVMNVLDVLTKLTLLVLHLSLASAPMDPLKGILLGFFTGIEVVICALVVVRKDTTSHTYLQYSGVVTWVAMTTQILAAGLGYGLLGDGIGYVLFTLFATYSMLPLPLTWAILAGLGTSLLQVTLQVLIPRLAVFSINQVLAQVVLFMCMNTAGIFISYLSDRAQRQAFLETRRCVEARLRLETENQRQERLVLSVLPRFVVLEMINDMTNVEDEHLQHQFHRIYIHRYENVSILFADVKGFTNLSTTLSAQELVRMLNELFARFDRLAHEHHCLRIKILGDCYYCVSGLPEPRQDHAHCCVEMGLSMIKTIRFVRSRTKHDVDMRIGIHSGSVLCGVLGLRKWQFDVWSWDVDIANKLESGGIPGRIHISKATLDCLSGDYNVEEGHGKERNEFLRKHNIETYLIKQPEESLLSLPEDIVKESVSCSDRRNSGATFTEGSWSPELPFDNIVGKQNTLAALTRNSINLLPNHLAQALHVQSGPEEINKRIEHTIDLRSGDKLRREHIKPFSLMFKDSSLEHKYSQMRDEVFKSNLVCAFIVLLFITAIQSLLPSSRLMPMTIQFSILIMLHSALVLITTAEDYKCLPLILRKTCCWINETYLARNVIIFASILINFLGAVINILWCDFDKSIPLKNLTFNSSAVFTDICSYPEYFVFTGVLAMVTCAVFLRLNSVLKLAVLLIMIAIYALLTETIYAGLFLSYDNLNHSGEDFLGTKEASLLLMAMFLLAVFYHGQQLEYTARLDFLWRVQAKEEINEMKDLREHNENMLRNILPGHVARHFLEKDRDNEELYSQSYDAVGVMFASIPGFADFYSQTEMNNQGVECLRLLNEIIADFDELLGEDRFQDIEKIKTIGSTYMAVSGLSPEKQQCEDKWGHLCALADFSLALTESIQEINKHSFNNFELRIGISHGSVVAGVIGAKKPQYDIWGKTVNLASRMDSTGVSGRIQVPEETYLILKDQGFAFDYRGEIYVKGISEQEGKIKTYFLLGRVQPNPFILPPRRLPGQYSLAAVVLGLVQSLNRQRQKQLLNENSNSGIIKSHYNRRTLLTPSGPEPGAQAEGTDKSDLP
UniProt P19754: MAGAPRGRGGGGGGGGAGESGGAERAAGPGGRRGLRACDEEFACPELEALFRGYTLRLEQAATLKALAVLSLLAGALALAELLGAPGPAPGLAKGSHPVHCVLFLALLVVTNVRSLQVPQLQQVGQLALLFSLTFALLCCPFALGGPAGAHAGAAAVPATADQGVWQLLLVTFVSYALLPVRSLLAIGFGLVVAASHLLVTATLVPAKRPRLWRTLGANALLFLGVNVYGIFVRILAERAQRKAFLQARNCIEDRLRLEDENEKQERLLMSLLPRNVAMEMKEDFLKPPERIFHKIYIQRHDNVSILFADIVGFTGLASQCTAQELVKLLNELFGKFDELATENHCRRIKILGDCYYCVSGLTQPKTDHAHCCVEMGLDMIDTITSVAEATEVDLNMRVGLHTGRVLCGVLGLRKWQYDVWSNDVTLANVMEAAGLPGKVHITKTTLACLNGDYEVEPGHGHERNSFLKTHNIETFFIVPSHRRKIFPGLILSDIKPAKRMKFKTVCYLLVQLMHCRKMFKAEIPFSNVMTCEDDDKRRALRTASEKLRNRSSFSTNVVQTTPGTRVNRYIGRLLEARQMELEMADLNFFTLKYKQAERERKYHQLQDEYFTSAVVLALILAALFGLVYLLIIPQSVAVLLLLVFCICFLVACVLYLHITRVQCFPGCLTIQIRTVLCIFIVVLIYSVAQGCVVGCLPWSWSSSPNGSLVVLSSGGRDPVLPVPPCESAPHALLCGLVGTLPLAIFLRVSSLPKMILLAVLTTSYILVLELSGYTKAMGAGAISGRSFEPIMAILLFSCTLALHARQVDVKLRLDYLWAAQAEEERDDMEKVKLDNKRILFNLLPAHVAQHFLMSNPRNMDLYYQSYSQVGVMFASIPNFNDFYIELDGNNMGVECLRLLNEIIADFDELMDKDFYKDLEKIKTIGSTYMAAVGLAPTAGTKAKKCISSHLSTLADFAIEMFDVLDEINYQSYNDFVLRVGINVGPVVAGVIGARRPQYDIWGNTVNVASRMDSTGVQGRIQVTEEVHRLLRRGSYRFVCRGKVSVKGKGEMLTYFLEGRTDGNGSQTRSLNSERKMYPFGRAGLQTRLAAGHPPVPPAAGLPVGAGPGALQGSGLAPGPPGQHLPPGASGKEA

In experiment [2] the target is endogenous AC1 (adenylyl cyclase 1) in HeLa cells (human (endogenous in HeLa)) (UniProt Q08828). The experiment is described as follows: co-IP; endogenous AC1 immunoprecipitated from HeLa whole-cell extracts with anti-AC1 antibody or control IgG; Protein A Sepharose beads washed 3 times with Co-IP lysis buffer plus 0.5% Triton X-100; immunoblot.

No constants are given. Whether binding was seen depends on the method and setting. Binding seen in cells or lysates may run through a third protein. Some results given as binding are weak or reduced against the parent protein; the word gives no strength. For some assays here: Where a sequence is shown, tags or fusion partners need not be part of it.

Consider “AC2 (adenylyl cyclase 2), HA-tagged (from UniProt P26769 1-1090) (enzyme)”, for which the binding entry in experiment [1] is “binds”.
Turning to “AC4 (adenylyl cyclase 4), HA-tagged (from UniProt P26770 1-1064) (enzyme)”, in experiment [1], the binding entry is listed as “binds”.
In the case of “AC5 (adenylyl cyclase 5), HA-tagged (from UniProt P40144 1-1264) (enzyme)”, in experiment [1], the binding entry was “binds”.
Take “AC6 (adenylyl cyclase 6), HA-tagged (from UniProt Q03343 1-1166) (enzyme)”: in experiment [1], the binding result is given as “binds”.
Take “AC8 (adenylyl cyclase 8), HA-tagged (from UniProt P40146 1-1248) (enzyme)”: the binding result in experiment [1] was “binds”.
Same read-out and setting: under “GFP-tagged AC1 catalytic domain 1b (C1b; aa 494-612) (from UniProt P19754 494-612) (domain or fragment)” stands “binds”; under “HA-tagged AC1 (adenylyl cyclase 1) (from UniProt P19754 1-1134) (enzyme)”, “binds”.

B1: endogenous TRIP-Br1 in HeLa cells (protein, UniProt Q9UHV2 1-236)
chain: MLSKGLKRKREEEEEKEPLAVDSWWLDPGHTAVAQAPPAVASSSLFDLSVLKLHHSLQQSEPDLRHLVLVVNTLRRIQASMAPAAALPPVPSPPAAPSVADNLLASSDAALSASMASLLEDLSHIEGLSQAPQPLADEGPPGRSIGGAAPSLGALDLLGPATGCLLDDGLEGLFEDIDTSMYDNELWAPASEGLKPGPEDGPGKEEAPELDEAELDYLMDVLVGTQALERPPGPGR
In the case of B1, in experiment [2], the binding entry is recorded as “binds”.

Values taken from article PMC5503512, “The complex of TRIP-Br1 and XIAP ubiquitinates and degrades multiple adenylyl cyclase isoforms” (eLife, 2017).
